Laboratory results as given in the supplement of paper PMC10849652.
The list shows a part of the results.

Protein sequences, listed by entry. Tags and fused reporters are not part of them. Lines headed by an entry give the natural chain unless they say otherwise; changes in a name come on top.
UniProt Q9H777: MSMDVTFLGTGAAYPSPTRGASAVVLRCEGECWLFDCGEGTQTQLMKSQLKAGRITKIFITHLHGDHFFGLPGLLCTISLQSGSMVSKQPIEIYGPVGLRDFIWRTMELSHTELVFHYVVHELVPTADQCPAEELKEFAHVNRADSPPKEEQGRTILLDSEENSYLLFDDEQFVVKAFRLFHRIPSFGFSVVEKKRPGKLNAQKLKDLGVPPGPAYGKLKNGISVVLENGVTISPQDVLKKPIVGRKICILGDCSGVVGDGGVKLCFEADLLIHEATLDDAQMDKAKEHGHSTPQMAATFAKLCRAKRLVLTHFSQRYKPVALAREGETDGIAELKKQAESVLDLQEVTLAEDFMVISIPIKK
UniProt Q9UKR5: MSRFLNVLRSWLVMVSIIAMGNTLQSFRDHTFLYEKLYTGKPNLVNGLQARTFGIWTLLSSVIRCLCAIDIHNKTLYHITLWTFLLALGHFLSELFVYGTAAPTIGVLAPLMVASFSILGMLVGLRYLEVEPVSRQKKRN
UniProt Q04637, whole entry, looked up: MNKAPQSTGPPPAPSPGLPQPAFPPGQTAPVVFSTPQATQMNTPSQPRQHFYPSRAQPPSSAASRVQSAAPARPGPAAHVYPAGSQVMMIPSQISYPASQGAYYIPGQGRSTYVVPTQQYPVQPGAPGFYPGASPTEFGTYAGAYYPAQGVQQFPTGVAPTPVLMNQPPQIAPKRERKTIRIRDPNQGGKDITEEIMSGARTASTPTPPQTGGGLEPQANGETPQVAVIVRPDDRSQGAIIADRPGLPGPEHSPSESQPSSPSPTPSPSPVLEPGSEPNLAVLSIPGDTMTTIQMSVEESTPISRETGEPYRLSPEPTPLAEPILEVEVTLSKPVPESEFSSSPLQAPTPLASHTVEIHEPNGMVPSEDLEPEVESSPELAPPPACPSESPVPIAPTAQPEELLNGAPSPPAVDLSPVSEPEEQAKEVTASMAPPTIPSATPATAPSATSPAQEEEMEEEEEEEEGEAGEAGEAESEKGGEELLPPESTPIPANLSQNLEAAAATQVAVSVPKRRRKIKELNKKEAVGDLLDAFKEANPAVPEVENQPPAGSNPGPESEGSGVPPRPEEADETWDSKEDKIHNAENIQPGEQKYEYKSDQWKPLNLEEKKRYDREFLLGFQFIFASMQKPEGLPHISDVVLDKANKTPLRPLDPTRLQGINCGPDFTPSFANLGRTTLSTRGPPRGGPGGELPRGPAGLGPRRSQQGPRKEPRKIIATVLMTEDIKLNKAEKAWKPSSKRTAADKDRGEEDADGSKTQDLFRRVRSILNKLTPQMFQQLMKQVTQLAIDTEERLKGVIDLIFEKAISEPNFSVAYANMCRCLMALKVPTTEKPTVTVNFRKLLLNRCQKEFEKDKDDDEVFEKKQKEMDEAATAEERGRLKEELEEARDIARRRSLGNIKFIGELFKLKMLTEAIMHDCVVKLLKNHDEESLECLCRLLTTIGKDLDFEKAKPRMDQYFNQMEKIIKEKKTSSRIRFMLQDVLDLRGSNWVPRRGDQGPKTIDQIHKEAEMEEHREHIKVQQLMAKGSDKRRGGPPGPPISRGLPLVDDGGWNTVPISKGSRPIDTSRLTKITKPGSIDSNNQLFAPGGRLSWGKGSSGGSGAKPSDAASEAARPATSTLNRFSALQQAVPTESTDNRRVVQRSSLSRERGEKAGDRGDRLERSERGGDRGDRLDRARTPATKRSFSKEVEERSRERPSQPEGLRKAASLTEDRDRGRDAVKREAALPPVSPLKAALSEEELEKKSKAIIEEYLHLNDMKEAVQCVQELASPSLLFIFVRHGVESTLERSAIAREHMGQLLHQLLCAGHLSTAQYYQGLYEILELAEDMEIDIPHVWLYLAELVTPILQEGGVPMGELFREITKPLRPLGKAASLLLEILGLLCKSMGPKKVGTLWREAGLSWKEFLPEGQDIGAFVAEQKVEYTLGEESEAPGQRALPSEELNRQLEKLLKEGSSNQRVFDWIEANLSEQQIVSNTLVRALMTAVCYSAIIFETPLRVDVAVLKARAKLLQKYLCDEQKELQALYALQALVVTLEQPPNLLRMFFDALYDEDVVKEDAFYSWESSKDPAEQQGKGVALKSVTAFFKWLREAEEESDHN
UniProt Q9HCM4: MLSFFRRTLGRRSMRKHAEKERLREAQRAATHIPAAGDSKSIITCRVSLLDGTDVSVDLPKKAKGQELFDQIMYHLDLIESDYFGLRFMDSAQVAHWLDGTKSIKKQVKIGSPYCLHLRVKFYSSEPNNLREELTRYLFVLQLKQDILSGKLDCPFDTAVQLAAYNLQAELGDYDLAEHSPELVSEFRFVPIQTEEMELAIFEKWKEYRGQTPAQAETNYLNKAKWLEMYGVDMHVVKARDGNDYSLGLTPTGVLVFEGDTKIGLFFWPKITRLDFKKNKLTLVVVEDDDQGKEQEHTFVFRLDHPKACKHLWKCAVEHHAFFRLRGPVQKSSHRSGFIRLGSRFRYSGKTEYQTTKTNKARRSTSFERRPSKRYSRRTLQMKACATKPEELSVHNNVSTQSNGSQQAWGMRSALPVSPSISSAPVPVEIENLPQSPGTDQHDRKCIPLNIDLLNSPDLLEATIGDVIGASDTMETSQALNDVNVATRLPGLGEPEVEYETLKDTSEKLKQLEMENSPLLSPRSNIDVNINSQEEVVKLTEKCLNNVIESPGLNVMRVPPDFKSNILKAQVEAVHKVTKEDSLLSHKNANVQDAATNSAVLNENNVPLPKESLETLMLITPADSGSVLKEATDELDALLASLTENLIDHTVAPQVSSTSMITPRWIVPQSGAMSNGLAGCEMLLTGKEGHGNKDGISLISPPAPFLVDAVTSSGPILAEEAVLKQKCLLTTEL
UniProt Q9Y6I3: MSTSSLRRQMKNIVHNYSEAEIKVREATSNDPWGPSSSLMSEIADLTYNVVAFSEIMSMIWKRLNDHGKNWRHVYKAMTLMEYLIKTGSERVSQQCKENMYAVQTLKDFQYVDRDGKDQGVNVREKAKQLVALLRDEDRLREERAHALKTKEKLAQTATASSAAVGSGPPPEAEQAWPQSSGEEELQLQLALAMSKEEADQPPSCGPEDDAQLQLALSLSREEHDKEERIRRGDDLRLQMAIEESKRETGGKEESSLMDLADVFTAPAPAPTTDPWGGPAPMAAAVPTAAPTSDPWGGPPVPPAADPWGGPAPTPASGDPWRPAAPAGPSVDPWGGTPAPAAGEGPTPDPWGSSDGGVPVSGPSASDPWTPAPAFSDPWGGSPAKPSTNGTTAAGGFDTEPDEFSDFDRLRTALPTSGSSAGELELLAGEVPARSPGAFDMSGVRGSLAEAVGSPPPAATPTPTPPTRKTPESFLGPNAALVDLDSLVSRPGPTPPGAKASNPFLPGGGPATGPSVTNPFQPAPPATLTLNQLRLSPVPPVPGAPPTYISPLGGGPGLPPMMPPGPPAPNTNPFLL
UniProt Q13216, whole entry, looked up: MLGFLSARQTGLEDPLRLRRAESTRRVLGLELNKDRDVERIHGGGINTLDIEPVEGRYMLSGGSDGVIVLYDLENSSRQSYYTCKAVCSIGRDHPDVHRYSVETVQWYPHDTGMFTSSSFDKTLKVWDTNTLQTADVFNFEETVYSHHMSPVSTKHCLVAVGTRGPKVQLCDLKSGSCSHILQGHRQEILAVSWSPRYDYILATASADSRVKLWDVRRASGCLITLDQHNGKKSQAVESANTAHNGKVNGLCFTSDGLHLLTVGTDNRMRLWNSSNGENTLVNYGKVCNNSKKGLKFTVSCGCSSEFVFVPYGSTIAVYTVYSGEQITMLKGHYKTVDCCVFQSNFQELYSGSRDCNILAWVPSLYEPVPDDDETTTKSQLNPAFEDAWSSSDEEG
UniProt P19419: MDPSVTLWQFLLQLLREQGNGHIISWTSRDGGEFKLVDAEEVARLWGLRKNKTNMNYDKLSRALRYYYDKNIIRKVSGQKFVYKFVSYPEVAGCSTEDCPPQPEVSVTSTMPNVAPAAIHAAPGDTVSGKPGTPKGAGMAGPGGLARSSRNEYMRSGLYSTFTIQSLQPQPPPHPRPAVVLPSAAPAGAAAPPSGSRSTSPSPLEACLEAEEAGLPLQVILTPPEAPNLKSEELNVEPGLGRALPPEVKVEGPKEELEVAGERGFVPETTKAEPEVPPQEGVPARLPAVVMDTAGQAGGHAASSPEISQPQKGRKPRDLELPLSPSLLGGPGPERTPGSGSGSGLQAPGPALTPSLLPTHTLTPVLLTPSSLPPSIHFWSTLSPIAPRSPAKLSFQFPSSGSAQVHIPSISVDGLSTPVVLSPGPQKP
UniProt Q96AY2: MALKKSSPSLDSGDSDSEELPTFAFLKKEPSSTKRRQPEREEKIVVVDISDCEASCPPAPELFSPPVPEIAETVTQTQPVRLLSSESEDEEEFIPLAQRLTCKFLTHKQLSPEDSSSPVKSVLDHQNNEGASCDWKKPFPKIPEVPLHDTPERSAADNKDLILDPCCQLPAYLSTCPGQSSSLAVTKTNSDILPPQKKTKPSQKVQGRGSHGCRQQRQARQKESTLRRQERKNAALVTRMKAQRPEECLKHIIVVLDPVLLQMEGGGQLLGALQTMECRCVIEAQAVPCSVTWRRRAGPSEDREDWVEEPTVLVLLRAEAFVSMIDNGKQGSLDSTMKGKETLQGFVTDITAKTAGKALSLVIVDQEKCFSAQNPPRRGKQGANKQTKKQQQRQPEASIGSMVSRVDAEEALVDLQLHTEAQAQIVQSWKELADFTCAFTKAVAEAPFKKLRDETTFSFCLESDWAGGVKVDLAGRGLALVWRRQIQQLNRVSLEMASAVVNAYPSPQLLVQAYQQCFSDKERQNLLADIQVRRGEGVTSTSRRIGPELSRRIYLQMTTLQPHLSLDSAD
UniProt Q9Y227: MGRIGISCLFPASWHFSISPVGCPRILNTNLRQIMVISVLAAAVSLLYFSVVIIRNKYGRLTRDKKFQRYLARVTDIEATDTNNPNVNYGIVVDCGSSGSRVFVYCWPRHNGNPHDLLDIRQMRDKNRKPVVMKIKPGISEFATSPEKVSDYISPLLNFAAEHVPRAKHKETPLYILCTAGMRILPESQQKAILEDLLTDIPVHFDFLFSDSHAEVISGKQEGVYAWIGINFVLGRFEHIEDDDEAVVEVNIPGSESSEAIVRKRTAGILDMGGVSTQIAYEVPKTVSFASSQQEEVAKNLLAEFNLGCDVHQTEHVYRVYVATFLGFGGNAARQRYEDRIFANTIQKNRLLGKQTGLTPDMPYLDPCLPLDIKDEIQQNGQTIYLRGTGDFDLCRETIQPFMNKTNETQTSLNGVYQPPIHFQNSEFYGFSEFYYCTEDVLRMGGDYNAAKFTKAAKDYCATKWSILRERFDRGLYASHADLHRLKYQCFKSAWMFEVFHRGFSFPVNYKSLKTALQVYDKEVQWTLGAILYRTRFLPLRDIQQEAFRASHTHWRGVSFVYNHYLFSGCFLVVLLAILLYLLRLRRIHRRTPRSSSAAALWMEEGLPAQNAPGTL
UniProt Q8N766: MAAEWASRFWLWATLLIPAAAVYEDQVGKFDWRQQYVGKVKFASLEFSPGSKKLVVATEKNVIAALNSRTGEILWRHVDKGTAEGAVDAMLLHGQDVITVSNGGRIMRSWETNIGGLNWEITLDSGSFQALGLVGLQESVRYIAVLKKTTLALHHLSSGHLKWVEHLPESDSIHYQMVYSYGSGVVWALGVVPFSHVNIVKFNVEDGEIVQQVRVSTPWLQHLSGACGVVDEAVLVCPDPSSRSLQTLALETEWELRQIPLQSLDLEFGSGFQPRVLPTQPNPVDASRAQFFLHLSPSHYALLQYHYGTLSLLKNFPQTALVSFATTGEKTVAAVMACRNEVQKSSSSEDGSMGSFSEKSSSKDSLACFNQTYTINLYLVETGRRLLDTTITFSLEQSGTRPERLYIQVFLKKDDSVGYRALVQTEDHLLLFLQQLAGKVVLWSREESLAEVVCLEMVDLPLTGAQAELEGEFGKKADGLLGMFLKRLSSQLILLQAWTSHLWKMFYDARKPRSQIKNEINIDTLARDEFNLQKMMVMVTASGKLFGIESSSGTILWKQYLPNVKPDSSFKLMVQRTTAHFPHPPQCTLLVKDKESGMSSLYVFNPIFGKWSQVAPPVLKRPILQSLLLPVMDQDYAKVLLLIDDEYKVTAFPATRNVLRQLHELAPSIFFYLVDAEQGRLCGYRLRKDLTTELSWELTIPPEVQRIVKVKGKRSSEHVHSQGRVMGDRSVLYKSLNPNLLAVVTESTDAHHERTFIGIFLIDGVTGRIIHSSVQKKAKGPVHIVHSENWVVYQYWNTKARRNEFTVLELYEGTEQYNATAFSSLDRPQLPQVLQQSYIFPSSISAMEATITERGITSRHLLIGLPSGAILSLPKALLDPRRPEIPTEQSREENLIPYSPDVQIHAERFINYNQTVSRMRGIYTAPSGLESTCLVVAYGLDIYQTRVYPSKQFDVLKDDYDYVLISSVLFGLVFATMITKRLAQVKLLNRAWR

How the values were obtained:
Assay in all cases: log2 fold change, soluble protein after heating vs DMSO (PISA); higher = thermal stabilisation; K562 lysate, 10 uM; active = over 0.2 and 3.5 SD of the protein, either way, in both replicates (recomputed)
[1] = compound: C1=CC2=NC=CN=C2C=C1/C=C/3\C(=O)NC(=O)S3
How it was run: (§1)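 To prepare the extract, K562 pellets were dounce-homogenised in PBS pH 7.4 with 1 mM MgCl2, giving crude material at 1 mg/mL protein. This was treated with 10 μM compound for 30 min, then heated in aliquots for 3 min over 48°C-58°C before pooling and addition of NP-40 to 0.5% at 4°C. Centrifugation at 21,000xg for 90 min left soluble protein in the supernatant, which TMTpro 16plex LC-MS/MS quantified with equalised channel sums. Results are log-two fold changes in thermal stability compared with solvent controls, from duplicates.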

[2] = compound: C1=CC=C(C=C1)C2=NC(=C(N2)C3=CC=NC=C3)C4=CC(=C(C=C4)Cl)O
How it was run: as §1

IRAK-1-4 Inhibitor I = compound: C1COCCN1CCN2C3=CC=CC=C3N=C2NC(=O)C4=CC(=CC=C4)[N+](=O)[O-] [IRAK-1-4 Inhibitor I]
How it was run: as §1

ibrutinib = compound: C=CC(=O)N1CCC[C@@H](n2nc(-c3ccc(Oc4ccccc4)cc3)c3c(N)ncnc32)C1 [ibrutinib]
How it was run: as §1

[3] = compound: CC(=O)c1cnc2ccc(-c3cc(Cl)c(O)c(Cl)c3)nc2c1N[C@H]1CC[C@H](CN(C)C)CC1
How it was run: as §1

ralimetinib = compound: CC(C)(C)Cn1c(N)nc2ccc(-c3[nH]c(C(C)(C)C)nc3-c3ccc(F)cc3)nc21 [ralimetinib]
How it was run: as §1

[4] = compound: CC(C)(O)CC(=O)NCCn1ccc2ncnc(Nc3ccc(Oc4cccc(C(F)(F)F)c4)c(Cl)c3)c21
How it was run: as §1

[5] = compound: CC1=C(C(CC(=O)N1)C2=CC=C(C=C2)C(F)(F)F)C(=O)NC3=C(C=C4C(=C3)C=NN4)F
How it was run: as §1

[6] = compound: CC1=C(C=C(C=C1)NC(=O)C2=CC(=CC=C2)N(C)C)NC(=O)C3=CC=C(C=C3)O
How it was run: as §1

[7] = compound: CC1=CC=C(C=C1)SC2=C3C=C(SC3=CN=C2)C(=O)N
How it was run: as §1

[8] = compound: C/C(=N\NC(=O)C1=CC(=CC=C1)S(=O)(=O)N2CCOCC2)/C3=C(C=CC(=C3)Cl)O
How it was run: as §1

[9] = compound: C1=CC2=C(C=CC(=C2)/C=C\3/C(=O)NC(=NCC4=CC=CS4)S3)N=C1
How it was run: as §1

[10] = compound: C1=CC=C2C(=C1)C3=NNC4=CC=CC(=C43)C2=O
How it was run: as §1

[11] = compound: C1CCN(C1)C(=O)NC2=CC=CC(=C2)NC3=NC=C(C(=N3)NCCC4=CN=CN4)Br
How it was run: as §1

[12] = compound: C1CN(CCC1(CC2=CC=C(C=C2)Cl)N)C3=NC=NC4=C3C=CN4
How it was run: as §1

[13] = compound: CC1=C(C2=C(C=C1)C(=O)C3=CC=CC=C3N2CCCN)C
How it was run: as §1

erlotinib = compound: C#Cc1cccc(Nc2ncnc3cc(OCCOC)c(OCCOC)cc23)c1 [erlotinib]
How it was run: as §1

[14] = compound: C1=CC(=CC=C1C2=NC3=C(N2)C=C(C=C3)C(=O)N)OC4=CC=C(C=C4)Cl
How it was run: as §1

[15] = compound: CC(C)C1=C2N=C(C=C(N2N=C1)NCC3=CC=CC=C3)NCCCCCCN
How it was run: as §1

[16] = compound: CC1=C(C=C(C=C1)NC(=O)C2=CC(=CC=C2)C(C)(C)C#N)NC3=CC4=C(C=C3)N=CN(C4=O)C
How it was run: as §1

Measured: log2 fold change

EPB41L2 isoform 4 (UniProt O43491)
inactive: [1] -0.066 | [2] -0.016 | IRAK-1-4 Inhibitor I 0.086 | ibrutinib -0.08 | [3] -0.008 | ralimetinib -0.02 | [4] -0.148 | [5] 0.042 | [6] -0.18 | [7] 0.024

ELAC1 (UniProt Q9H777)
inactive: [8] 0.137 | [9] -0.052 | [1] 0.03 | [10] -0.117 | [11] 0.273 | [12] 0.15 | ibrutinib 0.013 | [3] -0.004 | [7] -0.108

EIF4A1 (UniProt J3KS25)
inactive: [8] 0.106 | [9] -0.016 | [2] 0.006 | [10] 0.263 | [11] -0.201 | [12] 0.279 | IRAK-1-4 Inhibitor I -0.099 | ralimetinib -0.101 | [4] -0.029 | [6] 0.295

ERG28 (UniProt Q9UKR5)
inactive: [1] -0.015 | [11] 0.072 | [12] -0.066 | ibrutinib 0.064 | [3] -0.045 | [13] 0.059 | [7] -0.004

EIF4G1 isoform 5 (UniProt Q04637)
inactive: [3] -0.084 | [5] -0.037 | [7] -0.014

2 entries picked at random from those above, as already listed:
ERG28 (UniProt Q9UKR5)
inactive: [1] -0.015 | [11] 0.072 | [12] -0.066 | ibrutinib 0.064 | [3] -0.045 | [13] 0.059 | [7] -0.004

EPB41L2 isoform 4 (UniProt O43491)
inactive: [1] -0.066 | [2] -0.016 | IRAK-1-4 Inhibitor I 0.086 | ibrutinib -0.08 | [3] -0.008 | ralimetinib -0.02 | [4] -0.148 | [5] 0.042 | [6] -0.18 | [7] 0.024

(cont.)

EPB41L5 isoform 2 (UniProt Q9HCM4)
inactive: [3] -0.116 | [7] 0.017

EPN1 isoform 3 (UniProt Q9Y6I3)
inactive: erlotinib -0.057 | [14] 0.202 | [2] -0.198 | IRAK-1-4 Inhibitor I -0.154 | [3] -0.026 | ralimetinib 0.035 | [4] 0.037 | [15] 0.074 | [5] 0.072 | [13] -0.095 | [16] 0.179 | [6] -0.086 | [7] -0.12

ERCC8 (UniProt Q13216)
inactive: [1] -0.155 | ibrutinib 0.071 | [3] -0.098 | [5] 0.153 | [16] 0.027 | [7] -0.069

ELOF1 (UniProt P60002)
inactive: erlotinib -0.003 | [14] 0.012 | [1] 0.067 | [2] 0.225 | IRAK-1-4 Inhibitor I -0.087 | ibrutinib 0.062 | [3] 0.039 | ralimetinib -0.157 | [4] 0.061 | [15] -0.08 | [13] 0.018 | [16] 0.416 | [6] 0.01 | [7] -0.029

ELK1 (UniProt P19419)
inactive: [8] -0.104 | [9] -0.154 | [1] 0.164 | [2] -0.059 | [10] -0.003 | [11] -0.099 | [12] -0.038 | IRAK-1-4 Inhibitor I 0.078 | ibrutinib -0.059 | ralimetinib 0.049 | [4] -0.129 | [13] -0.139 | [6] -0.057

EME1 isoform 2 (UniProt Q96AY2)
inactive: [8] 0.063 | [9] -0.093 | [1] -0.038 | [2] -0.03 | [10] -0.154 | [11] 0.105 | [12] -0.007 | IRAK-1-4 Inhibitor I 0.132 | ibrutinib -0.055 | ralimetinib -0.009 | [4] -0.114 | [16] -0.026 | [6] 0.104

EPB41, A0A2R8Y783
inactive: [8] -0.136 | [9] 0.09 | [1] -0.058 | [10] 0.017 | [11] -0.001 | [12] 0.346 | ibrutinib 0.196 | [3] 0.093 | [13] 0.057 | [7] 0.034

ENTPD4 (UniProt Q9Y227)
inactive: [2] -0.06 | IRAK-1-4 Inhibitor I -0.134 | ralimetinib 0.073 | [4] -0.121 | [6] 0

EMC1 isoform 3 (UniProt Q8N766)
inactive: [2] 0.009 | IRAK-1-4 Inhibitor I 0.023 | [3] 0.164 | ralimetinib -0.03 | [4] -0.035 | [16] -0.012 | [6] -0.061 | [7] 0.003
